Measurements reported in the supplement of paper PMC12067093, “Discovery and optimisation of a covalent ligand for TRIM25 and its application to targeted protein ubiquitination” (Chemical Science, 2025).
This is one part of the list.

By UniProt entry, the sequences of proteins in these tests, tags left out. Where a name states a change or a piece, a line headed by the entry shows the natural chain unless it says otherwise.
UniProt Q96T51: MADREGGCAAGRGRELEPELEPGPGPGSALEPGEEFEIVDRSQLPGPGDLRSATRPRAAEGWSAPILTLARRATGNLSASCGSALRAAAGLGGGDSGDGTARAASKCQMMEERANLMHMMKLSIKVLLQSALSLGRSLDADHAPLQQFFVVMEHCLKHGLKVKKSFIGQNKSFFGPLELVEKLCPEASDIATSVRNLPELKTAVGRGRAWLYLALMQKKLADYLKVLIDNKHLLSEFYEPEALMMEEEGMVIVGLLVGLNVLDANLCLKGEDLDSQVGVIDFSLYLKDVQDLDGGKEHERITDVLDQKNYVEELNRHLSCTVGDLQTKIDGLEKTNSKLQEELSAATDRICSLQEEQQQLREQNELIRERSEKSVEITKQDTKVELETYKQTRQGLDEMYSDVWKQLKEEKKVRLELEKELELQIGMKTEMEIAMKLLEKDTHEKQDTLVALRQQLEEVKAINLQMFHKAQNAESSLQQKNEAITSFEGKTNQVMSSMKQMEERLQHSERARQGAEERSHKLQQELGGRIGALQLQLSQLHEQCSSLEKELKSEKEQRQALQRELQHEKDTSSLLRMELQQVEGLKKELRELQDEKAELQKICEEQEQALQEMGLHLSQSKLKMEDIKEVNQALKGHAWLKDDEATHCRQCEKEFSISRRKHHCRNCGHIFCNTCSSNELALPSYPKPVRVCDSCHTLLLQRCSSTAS
UniProt Q5VZM2, whole entry, looked up: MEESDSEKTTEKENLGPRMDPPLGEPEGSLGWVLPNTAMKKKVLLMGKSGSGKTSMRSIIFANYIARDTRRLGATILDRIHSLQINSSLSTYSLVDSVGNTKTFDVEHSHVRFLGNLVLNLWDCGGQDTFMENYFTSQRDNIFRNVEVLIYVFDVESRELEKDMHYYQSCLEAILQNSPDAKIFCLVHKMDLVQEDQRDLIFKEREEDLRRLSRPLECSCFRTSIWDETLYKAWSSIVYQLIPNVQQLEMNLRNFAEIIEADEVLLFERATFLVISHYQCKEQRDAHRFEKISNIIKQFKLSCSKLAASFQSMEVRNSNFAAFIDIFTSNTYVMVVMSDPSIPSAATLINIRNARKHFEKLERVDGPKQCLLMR
UniProt Q14151: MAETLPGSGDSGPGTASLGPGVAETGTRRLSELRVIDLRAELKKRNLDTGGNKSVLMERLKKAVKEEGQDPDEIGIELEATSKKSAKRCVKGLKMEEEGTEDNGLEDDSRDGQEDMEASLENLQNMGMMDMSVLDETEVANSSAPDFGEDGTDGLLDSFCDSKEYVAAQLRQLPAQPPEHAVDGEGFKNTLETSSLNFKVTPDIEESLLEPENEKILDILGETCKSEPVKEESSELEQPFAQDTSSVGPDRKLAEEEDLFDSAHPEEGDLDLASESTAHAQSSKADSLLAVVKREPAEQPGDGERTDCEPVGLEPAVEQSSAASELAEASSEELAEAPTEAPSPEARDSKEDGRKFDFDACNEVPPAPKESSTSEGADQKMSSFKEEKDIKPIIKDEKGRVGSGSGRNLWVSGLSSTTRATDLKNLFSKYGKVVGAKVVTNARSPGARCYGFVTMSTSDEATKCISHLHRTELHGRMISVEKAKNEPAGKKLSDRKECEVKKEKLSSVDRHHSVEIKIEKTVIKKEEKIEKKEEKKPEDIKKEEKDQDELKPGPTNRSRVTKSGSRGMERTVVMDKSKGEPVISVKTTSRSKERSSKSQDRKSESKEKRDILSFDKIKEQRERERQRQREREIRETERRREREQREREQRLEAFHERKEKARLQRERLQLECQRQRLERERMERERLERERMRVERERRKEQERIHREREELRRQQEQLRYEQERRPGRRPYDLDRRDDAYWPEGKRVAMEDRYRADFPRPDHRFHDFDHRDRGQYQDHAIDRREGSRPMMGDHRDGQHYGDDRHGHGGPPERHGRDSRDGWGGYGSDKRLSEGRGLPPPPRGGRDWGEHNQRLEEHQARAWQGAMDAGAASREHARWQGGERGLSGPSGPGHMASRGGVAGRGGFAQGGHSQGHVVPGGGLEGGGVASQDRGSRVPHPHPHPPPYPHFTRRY
UniProt Q5VWQ0: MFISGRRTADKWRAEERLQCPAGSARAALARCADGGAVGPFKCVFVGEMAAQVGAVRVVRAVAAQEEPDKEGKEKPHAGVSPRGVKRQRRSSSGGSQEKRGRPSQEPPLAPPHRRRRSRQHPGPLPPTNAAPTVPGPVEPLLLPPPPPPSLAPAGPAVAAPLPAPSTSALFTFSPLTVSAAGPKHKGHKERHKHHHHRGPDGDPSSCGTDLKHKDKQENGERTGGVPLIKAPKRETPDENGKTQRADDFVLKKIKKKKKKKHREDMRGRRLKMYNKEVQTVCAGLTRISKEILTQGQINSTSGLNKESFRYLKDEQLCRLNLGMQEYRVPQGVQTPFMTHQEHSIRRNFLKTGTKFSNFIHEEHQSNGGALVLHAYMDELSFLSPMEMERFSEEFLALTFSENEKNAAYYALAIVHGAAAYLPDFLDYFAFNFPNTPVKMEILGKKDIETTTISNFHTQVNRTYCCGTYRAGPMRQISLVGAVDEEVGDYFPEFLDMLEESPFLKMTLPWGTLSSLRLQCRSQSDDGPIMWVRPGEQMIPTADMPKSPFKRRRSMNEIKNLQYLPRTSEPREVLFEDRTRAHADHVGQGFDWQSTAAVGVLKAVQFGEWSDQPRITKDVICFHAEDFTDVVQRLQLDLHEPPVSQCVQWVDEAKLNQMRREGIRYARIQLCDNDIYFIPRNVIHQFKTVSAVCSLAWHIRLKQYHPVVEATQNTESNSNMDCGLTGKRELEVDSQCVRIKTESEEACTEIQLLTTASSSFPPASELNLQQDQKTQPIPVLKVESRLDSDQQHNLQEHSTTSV
UniProt Q8N122, whole entry, looked up: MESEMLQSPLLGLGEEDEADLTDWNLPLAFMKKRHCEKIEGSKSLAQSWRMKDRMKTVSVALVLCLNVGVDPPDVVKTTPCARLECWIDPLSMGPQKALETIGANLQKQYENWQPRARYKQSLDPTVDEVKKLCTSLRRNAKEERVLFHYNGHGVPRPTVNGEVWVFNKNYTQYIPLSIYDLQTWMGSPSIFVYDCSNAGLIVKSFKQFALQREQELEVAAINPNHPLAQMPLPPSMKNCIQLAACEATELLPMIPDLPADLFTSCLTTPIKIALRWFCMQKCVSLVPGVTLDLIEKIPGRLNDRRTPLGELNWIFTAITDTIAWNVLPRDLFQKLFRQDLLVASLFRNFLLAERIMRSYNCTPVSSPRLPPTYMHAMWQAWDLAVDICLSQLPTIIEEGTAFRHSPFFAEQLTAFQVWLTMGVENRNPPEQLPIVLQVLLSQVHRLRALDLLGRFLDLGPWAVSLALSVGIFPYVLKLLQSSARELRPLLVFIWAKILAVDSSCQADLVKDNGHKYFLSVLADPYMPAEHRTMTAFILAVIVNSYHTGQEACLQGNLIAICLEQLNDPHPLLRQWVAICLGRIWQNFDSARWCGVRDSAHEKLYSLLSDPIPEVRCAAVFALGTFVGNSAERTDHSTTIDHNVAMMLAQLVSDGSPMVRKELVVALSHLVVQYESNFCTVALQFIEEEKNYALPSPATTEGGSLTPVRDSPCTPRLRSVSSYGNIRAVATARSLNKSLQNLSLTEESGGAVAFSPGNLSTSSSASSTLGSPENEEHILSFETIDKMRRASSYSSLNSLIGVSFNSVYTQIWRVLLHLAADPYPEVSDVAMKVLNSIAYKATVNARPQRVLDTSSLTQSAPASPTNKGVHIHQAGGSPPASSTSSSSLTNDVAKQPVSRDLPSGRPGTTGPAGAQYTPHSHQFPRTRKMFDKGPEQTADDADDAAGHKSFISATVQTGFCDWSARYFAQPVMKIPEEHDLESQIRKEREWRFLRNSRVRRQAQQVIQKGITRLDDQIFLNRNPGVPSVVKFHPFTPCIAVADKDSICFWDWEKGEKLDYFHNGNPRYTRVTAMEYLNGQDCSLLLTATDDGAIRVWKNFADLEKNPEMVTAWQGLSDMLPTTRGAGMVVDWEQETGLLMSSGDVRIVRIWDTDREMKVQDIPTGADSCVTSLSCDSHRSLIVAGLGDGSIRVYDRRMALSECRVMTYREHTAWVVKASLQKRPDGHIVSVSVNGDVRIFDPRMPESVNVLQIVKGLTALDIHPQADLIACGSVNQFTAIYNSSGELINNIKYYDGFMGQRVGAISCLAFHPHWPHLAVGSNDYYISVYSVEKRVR
UniProt Q6PCB5: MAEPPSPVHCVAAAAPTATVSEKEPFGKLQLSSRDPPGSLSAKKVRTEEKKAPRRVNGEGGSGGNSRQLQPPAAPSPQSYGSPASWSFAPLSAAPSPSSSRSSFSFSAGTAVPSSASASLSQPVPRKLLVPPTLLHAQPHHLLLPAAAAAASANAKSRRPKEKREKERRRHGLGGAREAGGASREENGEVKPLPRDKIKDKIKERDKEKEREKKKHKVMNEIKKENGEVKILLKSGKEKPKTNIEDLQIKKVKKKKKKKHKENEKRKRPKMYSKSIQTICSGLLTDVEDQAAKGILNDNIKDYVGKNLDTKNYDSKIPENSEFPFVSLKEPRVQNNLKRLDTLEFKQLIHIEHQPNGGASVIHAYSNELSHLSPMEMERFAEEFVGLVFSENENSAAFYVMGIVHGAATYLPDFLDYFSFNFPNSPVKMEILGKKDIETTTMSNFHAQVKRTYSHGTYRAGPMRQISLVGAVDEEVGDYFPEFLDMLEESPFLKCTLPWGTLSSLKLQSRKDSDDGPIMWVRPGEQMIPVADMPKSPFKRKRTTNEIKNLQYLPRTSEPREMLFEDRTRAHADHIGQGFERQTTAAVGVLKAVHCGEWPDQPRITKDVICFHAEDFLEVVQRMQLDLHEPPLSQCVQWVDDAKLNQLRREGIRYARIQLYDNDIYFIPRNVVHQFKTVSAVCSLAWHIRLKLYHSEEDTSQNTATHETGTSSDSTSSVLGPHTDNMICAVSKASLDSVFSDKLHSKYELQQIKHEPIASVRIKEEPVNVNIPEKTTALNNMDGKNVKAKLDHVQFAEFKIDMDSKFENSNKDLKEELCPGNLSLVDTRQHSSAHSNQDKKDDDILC
UniProt Q9UBE0: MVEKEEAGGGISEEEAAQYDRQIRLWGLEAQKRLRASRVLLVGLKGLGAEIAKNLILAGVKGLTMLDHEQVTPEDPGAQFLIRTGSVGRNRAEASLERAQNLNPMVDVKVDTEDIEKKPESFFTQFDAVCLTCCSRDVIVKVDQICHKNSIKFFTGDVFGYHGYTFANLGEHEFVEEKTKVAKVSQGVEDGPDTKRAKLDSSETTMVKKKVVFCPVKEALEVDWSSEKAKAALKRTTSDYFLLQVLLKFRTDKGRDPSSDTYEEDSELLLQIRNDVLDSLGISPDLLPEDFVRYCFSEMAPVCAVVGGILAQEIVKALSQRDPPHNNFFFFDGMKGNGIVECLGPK
UniProt P23921: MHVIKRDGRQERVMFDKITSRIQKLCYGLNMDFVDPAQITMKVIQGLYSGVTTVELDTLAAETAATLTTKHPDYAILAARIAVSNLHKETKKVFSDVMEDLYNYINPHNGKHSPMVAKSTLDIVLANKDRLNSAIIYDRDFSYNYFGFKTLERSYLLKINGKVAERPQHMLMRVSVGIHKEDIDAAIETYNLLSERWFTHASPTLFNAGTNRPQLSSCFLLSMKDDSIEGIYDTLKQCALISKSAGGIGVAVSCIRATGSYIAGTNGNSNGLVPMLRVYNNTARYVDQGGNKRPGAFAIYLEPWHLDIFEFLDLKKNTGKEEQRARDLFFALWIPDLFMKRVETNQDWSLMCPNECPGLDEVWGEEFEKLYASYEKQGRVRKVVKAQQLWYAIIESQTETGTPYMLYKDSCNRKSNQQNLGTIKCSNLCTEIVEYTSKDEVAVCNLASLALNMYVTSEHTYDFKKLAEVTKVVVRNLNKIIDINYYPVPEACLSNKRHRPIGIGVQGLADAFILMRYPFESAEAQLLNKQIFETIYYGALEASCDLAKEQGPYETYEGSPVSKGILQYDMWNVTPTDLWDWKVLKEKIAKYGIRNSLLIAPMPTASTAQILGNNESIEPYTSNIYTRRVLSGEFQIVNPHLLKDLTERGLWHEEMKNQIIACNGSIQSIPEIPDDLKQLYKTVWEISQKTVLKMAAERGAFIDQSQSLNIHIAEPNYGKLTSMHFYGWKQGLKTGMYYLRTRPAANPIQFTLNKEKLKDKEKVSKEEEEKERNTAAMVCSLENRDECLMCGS
UniProt Q9BY42: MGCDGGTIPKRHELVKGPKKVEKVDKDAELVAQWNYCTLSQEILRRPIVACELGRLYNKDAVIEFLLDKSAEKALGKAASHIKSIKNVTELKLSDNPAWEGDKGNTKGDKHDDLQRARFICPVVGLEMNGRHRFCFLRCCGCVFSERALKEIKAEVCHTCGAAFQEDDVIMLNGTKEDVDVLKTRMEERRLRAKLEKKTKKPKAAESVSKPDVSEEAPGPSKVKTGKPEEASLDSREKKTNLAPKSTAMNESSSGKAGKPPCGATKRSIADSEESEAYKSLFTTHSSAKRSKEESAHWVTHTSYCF

Compound: CC1Cc2ccccc2N1C(=O)C1CCCN(C1)C(=O)CCl (mixture of isomers) [TRIM25 ligand 11 (diastereomer mixture)]
Test: probe-labelled cysteine peptide fold change vs DMSO (competition) (log2 fold change); higher = less target engagement (more negative = stronger competition)
Details: THP-1, incubation time: 4 h
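Also: competitive chemoproteomic profiling in live THP-1 cells with an iodoacetamide desthiobiotin (IA-DTB) probe, comparing probe-labelled peptide intensities in compound-treated cells against DMSO-treated controls.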

| Target | probe-labelled cysteine peptide fold change (10 µM) | probe-labelled cysteine peptide fold change (50 µM) |
| --- | --- | --- |
| RUFY1_Q96T51_81_RATGNLSASCGSALR (UniProt Q96T51) | -0.118 | 0.018 |
| RUFY1_Q96T51_107_CQMMEER (UniProt Q96T51) | 0.0837 | -0.102 |
| RSL24D1_Q9UHA3_9_CYFCSGPIYPGHGMMFVR (UniProt Q9UHA3) | -0.21 | -0.0866 |
| RRP8_O43159_317_QRPASLVVADFGCGDCR (UniProt O43159) | -0.0294 | 0.0874 |
| RRAGB_Q5VZM2_185_IFCLVHK (UniProt Q5VZM2) | 0.162 | 0.183 |
| RRAGB_Q5VZM2_280_ATFLVISHYQCK (UniProt Q5VZM2) | 0.0504 | 0.237 |
| RUVBL2_Q9Y230_375_IRCEEEDVEMSEDAYTVLTR (UniProt Q9Y230) | 0.0335 | 0.0937 |
| RPS3_P23396_119_RACYGVLR (UniProt P23396) | -0.079 | 0.045 |
| SAFB2_Q14151_464_CISHLHR (UniProt Q14151) | -0.0285 | 0.0681 |
| SAMD9_Q5K651_420_CHPDQTK (UniProt Q5K651) | -0.031 | 0.073 |
| RSBN1_Q5VWQ0_207_GPDGDPSSCGTDLK (UniProt Q5VWQ0) | -0.0689 | -0.197 |
| RPS8_P62241_182_LLACIASRPGQCGR (UniProt P62241) | -0.25 | -0.369 |
| RPS6_P62753_83_GHSCYR (UniProt P62753) | 0.163 | 0.221 |
| RUFY1_Q96T51_544_IGALQLQLSQLHEQCSSLEK (UniProt Q96T51) | 0.0546 | 0.0817 |
| RUBCNL_Q9H714_40_LLNTDHPPCQLDIR (UniProt Q9H714) | 0.0816 | 0.119 |
| RPS12_P25398_106_KVVGCSCVVVK (UniProt P25398) | -0.135 | -0.0639 |
| RUFY1_Q96T51_675_NCGHIFCNTCSSNELALPSYPK (UniProt Q96T51) | 0.0301 | -0.043 |
| RPTOR_Q8N122_617_CAAVFALGTFVGNSAER (UniProt Q8N122) | -0.0784 | 0.0812 |
| RSBN1L_Q6PCB5_818_EELCPGNLSLVDTR (UniProt Q6PCB5) | -0.0817 | -0.286 |
| RPS27A_P62979_121+126_RECPSDECGAGVFMASHFDR (UniProt P62979) | -0.131 | -0.507 |
| RSBN1L_Q6PCB5_610_DVICFHAEDFLEVVQR (UniProt Q6PCB5) | -0.0248 | 0.2 |
| RSPRY1_Q96DX4_208_NTSAVLGCLAEK (UniProt Q96DX4) | -0.0649 | 0.028 |

Pulled one by one from above:

| Target | probe-labelled cysteine peptide fold change (10 µM) | probe-labelled cysteine peptide fold change (50 µM) |
| --- | --- | --- |
| RRAGB_Q5VZM2_280_ATFLVISHYQCK (UniProt Q5VZM2) | 0.0504 | 0.237 |
| RPTOR_Q8N122_617_CAAVFALGTFVGNSAER (UniProt Q8N122) | -0.0784 | 0.0812 |

(further entries)

| Target | probe-labelled cysteine peptide fold change (10 µM) | probe-labelled cysteine peptide fold change (50 µM) |
| --- | --- | --- |
| RSBN1_Q5VWQ0_671_IQLCDNDIYFIPR (UniProt Q5VWQ0) | 0.00486 | 0.13 |
| RPS20_P60866_70_TPCGEGSK (UniProt P60866) | -0.0516 | 0.021 |
| SACS_Q9NZJ4_1285_FCPLAQAVIKPIHDLDLQPYLHNVPK (UniProt Q9NZJ4) | -0.14 | -0.0635 |
| SAE1_Q9UBE0_214_VVFCPVK (UniProt Q9UBE0) | 0.0407 | -0.00828 |
| RPS15A_P62244_30_RQVLIRPCSK (UniProt P62244) | -0.184 | 0.075 |
| RRP9_O43818_460_NSVCIIPLR (UniProt O43818) | -0.351 | 0.077 |
| RPS16_P62249_25_TATAVAHCK (UniProt P62249) | -0.0285 | -0.122 |
| SAE1_Q9UBE0_214_KVVFCPVK (UniProt Q9UBE0) | -0.0881 | -0.131 |
| RUFY1_Q96T51_351_ICSLQEEQQQLR (UniProt Q96T51) | 0.0896 | 0.00996 |
| RRM1_P23921_779+787_NTAAMVCSLENRDECLMCGS (UniProt P23921) | -0.483 | -0.495 |
| SAFB2_Q14151_672_ERLQLECQR (UniProt Q14151) | -5.87e-05 | -0.195 |
| SAC3D1_A6NKF1_290_LLQTLPYLPSCAVQCHVGHAR (UniProt A6NKF1) | -0.0384 | 0.121 |
| RPRD2_Q5VT52_88_LNLFYLANDVIQNCK (UniProt Q5VT52) | -0.0422 | 0.0619 |
| RREB1_Q92766_1251_ITCPHCPR (UniProt Q92766) | -0.0787 | 0.0348 |
| RRM1_P23921_444_DEVAVCNLASLALNMYVTSEHTYDFKK (UniProt P23921) | 0.0269 | 0.065 |
| RPS5_P46782_155_RVNQAIWLLCTGAR (UniProt P46782) | -0.267 | -0.158 |
| RPS5_P46782_66_AQCPIVER (UniProt P46782) | -0.0708 | -0.0594 |
| RTFDC1_Q9BY42_51_RPIVACELGR (UniProt Q9BY42) | -0.104 | 0.073 |
| RXRA_P19793_171_DLTYTCR (UniProt P19793) | 0.103 | 0.177 |
| SACM1L_Q9NTJ5_23_FYVEACDDGADDVLTIDR (UniProt Q9NTJ5) | -0.172 | -0.192 |
| RPS2_P15880_182_PHTVPCK (UniProt P15880) | -0.0226 | 0.0166 |
